Test [1] has as its target T1, RAPTOR1B-6xMyc (Arabidopsis) (UniProt Q93YQ1).
T1 sequence: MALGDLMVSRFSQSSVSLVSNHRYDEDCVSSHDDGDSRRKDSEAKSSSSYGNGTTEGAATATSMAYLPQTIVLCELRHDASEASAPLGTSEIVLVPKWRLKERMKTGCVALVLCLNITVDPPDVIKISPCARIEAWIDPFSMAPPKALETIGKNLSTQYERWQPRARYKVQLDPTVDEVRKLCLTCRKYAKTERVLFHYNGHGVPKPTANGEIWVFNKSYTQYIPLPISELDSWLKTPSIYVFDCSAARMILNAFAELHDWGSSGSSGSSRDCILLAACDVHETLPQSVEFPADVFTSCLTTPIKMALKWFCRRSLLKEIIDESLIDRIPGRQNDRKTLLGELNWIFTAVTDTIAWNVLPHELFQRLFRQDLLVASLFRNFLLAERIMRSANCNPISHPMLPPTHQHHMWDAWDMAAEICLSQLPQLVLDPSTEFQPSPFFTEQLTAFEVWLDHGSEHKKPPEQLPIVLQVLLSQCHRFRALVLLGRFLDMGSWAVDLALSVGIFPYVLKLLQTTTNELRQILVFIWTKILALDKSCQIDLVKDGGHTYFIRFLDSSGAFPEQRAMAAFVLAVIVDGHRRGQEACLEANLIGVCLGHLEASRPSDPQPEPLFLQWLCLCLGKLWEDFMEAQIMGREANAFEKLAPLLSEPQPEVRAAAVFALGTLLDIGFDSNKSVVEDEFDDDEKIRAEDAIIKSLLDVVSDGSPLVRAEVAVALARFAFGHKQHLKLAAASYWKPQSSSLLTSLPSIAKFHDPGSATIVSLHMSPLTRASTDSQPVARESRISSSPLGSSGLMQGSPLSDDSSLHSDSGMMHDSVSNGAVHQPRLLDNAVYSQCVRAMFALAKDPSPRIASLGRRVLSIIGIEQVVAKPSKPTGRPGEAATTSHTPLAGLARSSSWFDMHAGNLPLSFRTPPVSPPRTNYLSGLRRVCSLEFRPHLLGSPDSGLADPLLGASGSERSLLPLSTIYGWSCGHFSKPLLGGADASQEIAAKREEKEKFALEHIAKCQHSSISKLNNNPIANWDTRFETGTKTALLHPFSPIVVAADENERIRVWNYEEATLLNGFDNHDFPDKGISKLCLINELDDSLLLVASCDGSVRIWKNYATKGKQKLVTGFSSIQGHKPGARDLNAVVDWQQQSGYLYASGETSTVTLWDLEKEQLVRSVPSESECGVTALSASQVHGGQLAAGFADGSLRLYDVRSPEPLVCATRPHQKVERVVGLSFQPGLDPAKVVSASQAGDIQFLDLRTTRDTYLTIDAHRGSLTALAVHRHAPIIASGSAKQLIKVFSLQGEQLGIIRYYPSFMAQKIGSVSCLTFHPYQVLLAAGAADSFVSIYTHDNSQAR
The test can be described thus: co-IP.

The target in test [2] is T2, nYFP-RAPTOR1B (Arabidopsis) (UniProt Q93YQ1).
T2 sequence: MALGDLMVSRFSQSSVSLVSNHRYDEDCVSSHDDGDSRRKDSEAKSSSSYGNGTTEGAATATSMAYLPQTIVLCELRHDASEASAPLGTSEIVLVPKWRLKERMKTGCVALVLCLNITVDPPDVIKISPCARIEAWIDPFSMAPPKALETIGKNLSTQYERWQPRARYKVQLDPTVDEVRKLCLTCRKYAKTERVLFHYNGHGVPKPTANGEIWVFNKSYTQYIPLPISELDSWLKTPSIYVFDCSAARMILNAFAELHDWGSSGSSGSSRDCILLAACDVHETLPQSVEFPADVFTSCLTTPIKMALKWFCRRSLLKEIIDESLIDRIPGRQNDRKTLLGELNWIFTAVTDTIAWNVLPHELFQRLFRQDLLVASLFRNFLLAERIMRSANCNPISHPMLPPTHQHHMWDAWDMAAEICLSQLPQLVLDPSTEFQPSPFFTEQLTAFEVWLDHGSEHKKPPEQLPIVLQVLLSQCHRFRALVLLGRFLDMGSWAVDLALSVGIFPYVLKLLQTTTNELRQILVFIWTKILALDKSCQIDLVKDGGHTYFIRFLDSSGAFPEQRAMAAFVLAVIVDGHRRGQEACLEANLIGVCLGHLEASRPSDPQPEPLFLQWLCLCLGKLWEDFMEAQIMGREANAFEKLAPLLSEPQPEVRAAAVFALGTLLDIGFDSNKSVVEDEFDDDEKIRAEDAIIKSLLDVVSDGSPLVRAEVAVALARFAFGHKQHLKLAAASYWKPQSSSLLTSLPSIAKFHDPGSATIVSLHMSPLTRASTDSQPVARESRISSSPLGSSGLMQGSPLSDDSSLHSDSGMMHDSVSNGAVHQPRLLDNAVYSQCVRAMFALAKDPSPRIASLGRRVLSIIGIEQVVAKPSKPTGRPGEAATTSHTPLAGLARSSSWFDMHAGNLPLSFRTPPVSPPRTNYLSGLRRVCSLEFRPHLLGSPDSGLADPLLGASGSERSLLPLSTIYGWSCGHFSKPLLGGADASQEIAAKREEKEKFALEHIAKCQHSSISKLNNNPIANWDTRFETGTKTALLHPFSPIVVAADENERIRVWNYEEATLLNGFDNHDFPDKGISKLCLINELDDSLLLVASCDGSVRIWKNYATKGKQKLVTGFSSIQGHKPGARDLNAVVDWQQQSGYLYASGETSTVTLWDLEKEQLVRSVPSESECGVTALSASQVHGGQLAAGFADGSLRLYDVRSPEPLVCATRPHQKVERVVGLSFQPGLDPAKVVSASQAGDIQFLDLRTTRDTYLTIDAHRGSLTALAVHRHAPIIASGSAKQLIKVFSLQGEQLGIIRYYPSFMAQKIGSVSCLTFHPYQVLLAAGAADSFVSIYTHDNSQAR
Nature of the test: split reporter.

The next test concerns the target T3, FLZ14-3xHA (Arabidopsis) (UniProt Q8GYX2).
T3 sequence: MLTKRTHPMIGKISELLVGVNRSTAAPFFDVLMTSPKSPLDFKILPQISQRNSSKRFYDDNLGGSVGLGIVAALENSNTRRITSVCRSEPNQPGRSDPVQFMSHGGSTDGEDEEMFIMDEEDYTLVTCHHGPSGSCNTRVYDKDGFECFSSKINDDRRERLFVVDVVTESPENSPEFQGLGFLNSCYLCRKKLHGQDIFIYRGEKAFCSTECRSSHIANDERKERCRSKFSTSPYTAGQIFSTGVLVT
The test can be described thus: co-IP.

Results are given in words; binding and its absence hold for the method and conditions named. Binding seen in cells or lysates may run through a third protein. Some entries that bind do so weakly or less than the wild type. Tags and fused reporters may be left off the sequences shown.

B1: FLZ14-3xHA (protein, UniProt Q8GYX2 1-248)
chain: MLTKRTHPMIGKISELLVGVNRSTAAPFFDVLMTSPKSPLDFKILPQISQRNSSKRFYDDNLGGSVGLGIVAALENSNTRRITSVCRSEPNQPGRSDPVQFMSHGGSTDGEDEEMFIMDEEDYTLVTCHHGPSGSCNTRVYDKDGFECFSSKINDDRRERLFVVDVVTESPENSPEFQGLGFLNSCYLCRKKLHGQDIFIYRGEKAFCSTECRSSHIANDERKERCRSKFSTSPYTAGQIFSTGVLVT
As to B1, the binding result in test [1] is “binds”.

B2: FLZ6-cYFP (protein, UniProt Q9SGZ8 1-162)
chain: MLLGKRQRPPINRTTSLSEIKFDLNLPSESEPSNQQKPTVASPYGSNGQAVTAAVDQNRGFLDQRLLSMVTPRGNLRRHSGDFSDAGHFLRSCALCERLLVPGRDIYMYRGDKAFCSSECRQEQMAQDERKEKGKSAAPAKEPAVTAPARAKPGKGRAAAAV
On to B2, for which the binding result in test [2] was “no binding”.

B3: RAPTOR1B-6xMyc (protein, UniProt Q93YQ1 1-1344)
chain: MALGDLMVSRFSQSSVSLVSNHRYDEDCVSSHDDGDSRRKDSEAKSSSSYGNGTTEGAATATSMAYLPQTIVLCELRHDASEASAPLGTSEIVLVPKWRLKERMKTGCVALVLCLNITVDPPDVIKISPCARIEAWIDPFSMAPPKALETIGKNLSTQYERWQPRARYKVQLDPTVDEVRKLCLTCRKYAKTERVLFHYNGHGVPKPTANGEIWVFNKSYTQYIPLPISELDSWLKTPSIYVFDCSAARMILNAFAELHDWGSSGSSGSSRDCILLAACDVHETLPQSVEFPADVFTSCLTTPIKMALKWFCRRSLLKEIIDESLIDRIPGRQNDRKTLLGELNWIFTAVTDTIAWNVLPHELFQRLFRQDLLVASLFRNFLLAERIMRSANCNPISHPMLPPTHQHHMWDAWDMAAEICLSQLPQLVLDPSTEFQPSPFFTEQLTAFEVWLDHGSEHKKPPEQLPIVLQVLLSQCHRFRALVLLGRFLDMGSWAVDLALSVGIFPYVLKLLQTTTNELRQILVFIWTKILALDKSCQIDLVKDGGHTYFIRFLDSSGAFPEQRAMAAFVLAVIVDGHRRGQEACLEANLIGVCLGHLEASRPSDPQPEPLFLQWLCLCLGKLWEDFMEAQIMGREANAFEKLAPLLSEPQPEVRAAAVFALGTLLDIGFDSNKSVVEDEFDDDEKIRAEDAIIKSLLDVVSDGSPLVRAEVAVALARFAFGHKQHLKLAAASYWKPQSSSLLTSLPSIAKFHDPGSATIVSLHMSPLTRASTDSQPVARESRISSSPLGSSGLMQGSPLSDDSSLHSDSGMMHDSVSNGAVHQPRLLDNAVYSQCVRAMFALAKDPSPRIASLGRRVLSIIGIEQVVAKPSKPTGRPGEAATTSHTPLAGLARSSSWFDMHAGNLPLSFRTPPVSPPRTNYLSGLRRVCSLEFRPHLLGSPDSGLADPLLGASGSERSLLPLSTIYGWSCGHFSKPLLGGADASQEIAAKREEKEKFALEHIAKCQHSSISKLNNNPIANWDTRFETGTKTALLHPFSPIVVAADENERIRVWNYEEATLLNGFDNHDFPDKGISKLCLINELDDSLLLVASCDGSVRIWKNYATKGKQKLVTGFSSIQGHKPGARDLNAVVDWQQQSGYLYASGETSTVTLWDLEKEQLVRSVPSESECGVTALSASQVHGGQLAAGFADGSLRLYDVRSPEPLVCATRPHQKVERVVGLSFQPGLDPAKVVSASQAGDIQFLDLRTTRDTYLTIDAHRGSLTALAVHRHAPIIASGSAKQLIKVFSLQGEQLGIIRYYPSFMAQKIGSVSCLTFHPYQVLLAAGAADSFVSIYTHDNSQAR
B3: the binding result with FLZ14-3xHA (Arabidopsis) is on record as “binds”.
